Measured values taken from the supplement of paper PMC10849652.
This is one part of the list.

By UniProt entry, the sequences of proteins in these tests, tags left out. Where a name states a change or a piece, a line headed by the entry shows the natural chain unless it says otherwise.
UniProt O14965: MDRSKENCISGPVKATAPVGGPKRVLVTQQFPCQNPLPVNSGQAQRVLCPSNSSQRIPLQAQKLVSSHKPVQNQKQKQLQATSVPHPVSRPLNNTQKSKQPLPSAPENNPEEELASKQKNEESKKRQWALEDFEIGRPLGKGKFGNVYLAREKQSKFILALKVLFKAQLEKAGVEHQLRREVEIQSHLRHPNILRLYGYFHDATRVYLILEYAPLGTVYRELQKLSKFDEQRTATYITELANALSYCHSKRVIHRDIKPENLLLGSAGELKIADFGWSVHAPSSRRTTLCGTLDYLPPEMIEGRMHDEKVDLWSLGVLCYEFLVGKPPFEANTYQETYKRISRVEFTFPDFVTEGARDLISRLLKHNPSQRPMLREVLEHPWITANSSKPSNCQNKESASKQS
UniProt Q06055: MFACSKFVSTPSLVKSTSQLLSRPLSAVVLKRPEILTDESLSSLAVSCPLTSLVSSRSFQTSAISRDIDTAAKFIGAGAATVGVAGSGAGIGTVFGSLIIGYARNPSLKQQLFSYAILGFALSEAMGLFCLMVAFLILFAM
UniProt Q9UBL3, whole entry, looked up: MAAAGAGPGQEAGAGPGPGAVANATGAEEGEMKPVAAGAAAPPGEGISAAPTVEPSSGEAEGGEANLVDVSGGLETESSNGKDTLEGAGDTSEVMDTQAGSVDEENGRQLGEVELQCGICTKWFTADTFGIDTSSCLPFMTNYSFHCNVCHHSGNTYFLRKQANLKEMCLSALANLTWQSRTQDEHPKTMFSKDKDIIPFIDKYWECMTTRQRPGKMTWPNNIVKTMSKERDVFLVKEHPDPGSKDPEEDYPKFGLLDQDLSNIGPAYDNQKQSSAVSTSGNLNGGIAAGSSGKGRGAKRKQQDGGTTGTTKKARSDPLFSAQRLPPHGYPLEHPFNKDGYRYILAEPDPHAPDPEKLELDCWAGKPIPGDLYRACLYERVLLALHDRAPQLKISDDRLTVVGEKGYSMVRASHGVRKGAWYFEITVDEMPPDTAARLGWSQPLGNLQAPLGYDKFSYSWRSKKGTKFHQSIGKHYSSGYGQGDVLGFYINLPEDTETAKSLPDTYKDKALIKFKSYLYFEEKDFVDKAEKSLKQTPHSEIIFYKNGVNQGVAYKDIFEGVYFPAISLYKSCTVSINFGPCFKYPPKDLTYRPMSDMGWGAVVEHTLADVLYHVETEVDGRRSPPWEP
UniProt B2RBV5: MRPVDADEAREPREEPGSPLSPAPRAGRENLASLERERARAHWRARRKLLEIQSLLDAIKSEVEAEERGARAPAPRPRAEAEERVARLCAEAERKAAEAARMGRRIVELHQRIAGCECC
UniProt Q53RT3: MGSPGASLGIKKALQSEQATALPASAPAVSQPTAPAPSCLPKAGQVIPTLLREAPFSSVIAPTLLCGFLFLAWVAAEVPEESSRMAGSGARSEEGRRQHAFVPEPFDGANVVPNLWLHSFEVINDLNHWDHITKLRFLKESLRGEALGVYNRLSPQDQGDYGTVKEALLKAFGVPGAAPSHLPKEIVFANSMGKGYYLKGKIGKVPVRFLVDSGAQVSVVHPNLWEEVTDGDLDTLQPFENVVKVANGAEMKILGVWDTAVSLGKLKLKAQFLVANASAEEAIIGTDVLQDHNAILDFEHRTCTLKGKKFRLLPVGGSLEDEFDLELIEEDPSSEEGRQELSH
UniProt Q5T6C5: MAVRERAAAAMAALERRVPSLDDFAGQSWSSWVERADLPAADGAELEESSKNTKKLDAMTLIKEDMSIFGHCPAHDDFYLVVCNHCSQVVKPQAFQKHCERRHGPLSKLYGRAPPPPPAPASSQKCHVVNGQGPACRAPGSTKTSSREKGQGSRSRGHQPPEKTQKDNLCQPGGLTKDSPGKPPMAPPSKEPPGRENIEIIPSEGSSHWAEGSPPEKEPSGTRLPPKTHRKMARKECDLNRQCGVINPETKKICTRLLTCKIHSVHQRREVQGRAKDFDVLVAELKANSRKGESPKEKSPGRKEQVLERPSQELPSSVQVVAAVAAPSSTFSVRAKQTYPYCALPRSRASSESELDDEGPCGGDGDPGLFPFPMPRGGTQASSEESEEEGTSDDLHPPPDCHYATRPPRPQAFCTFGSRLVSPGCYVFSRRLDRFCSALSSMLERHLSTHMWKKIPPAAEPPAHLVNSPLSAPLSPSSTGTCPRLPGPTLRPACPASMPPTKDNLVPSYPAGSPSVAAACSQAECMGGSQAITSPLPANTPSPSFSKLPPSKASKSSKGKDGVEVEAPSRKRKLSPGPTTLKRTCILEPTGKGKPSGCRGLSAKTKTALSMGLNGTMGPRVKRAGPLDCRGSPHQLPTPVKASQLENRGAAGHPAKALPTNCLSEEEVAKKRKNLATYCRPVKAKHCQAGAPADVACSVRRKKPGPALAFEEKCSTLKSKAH
UniProt Q96L58: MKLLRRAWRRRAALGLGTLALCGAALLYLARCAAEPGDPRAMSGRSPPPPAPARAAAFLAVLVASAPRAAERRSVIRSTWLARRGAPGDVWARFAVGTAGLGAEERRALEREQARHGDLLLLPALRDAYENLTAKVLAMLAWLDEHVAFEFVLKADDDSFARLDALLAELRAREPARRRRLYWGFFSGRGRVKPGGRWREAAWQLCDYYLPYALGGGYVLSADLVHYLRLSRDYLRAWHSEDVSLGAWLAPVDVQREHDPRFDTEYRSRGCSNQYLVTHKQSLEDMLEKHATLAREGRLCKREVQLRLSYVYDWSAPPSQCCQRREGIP
UniProt Q6P4H8: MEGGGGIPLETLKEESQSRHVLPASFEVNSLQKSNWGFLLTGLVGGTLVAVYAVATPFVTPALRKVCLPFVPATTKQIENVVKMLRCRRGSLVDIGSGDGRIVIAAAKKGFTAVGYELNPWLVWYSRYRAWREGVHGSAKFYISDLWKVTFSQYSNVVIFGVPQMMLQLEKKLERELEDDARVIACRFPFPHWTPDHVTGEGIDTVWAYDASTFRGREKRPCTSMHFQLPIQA
UniProt Q9UN42: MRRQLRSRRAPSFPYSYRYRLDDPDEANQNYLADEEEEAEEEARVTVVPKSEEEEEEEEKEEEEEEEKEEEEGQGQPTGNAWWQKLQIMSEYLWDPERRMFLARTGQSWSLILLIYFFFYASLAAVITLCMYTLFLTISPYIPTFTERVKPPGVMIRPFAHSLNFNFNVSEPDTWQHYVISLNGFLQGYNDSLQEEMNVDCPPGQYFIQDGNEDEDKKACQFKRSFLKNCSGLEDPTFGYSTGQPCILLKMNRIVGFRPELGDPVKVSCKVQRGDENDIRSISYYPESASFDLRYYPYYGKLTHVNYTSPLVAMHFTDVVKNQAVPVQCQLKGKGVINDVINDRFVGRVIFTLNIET
UniProt Q9ULI0: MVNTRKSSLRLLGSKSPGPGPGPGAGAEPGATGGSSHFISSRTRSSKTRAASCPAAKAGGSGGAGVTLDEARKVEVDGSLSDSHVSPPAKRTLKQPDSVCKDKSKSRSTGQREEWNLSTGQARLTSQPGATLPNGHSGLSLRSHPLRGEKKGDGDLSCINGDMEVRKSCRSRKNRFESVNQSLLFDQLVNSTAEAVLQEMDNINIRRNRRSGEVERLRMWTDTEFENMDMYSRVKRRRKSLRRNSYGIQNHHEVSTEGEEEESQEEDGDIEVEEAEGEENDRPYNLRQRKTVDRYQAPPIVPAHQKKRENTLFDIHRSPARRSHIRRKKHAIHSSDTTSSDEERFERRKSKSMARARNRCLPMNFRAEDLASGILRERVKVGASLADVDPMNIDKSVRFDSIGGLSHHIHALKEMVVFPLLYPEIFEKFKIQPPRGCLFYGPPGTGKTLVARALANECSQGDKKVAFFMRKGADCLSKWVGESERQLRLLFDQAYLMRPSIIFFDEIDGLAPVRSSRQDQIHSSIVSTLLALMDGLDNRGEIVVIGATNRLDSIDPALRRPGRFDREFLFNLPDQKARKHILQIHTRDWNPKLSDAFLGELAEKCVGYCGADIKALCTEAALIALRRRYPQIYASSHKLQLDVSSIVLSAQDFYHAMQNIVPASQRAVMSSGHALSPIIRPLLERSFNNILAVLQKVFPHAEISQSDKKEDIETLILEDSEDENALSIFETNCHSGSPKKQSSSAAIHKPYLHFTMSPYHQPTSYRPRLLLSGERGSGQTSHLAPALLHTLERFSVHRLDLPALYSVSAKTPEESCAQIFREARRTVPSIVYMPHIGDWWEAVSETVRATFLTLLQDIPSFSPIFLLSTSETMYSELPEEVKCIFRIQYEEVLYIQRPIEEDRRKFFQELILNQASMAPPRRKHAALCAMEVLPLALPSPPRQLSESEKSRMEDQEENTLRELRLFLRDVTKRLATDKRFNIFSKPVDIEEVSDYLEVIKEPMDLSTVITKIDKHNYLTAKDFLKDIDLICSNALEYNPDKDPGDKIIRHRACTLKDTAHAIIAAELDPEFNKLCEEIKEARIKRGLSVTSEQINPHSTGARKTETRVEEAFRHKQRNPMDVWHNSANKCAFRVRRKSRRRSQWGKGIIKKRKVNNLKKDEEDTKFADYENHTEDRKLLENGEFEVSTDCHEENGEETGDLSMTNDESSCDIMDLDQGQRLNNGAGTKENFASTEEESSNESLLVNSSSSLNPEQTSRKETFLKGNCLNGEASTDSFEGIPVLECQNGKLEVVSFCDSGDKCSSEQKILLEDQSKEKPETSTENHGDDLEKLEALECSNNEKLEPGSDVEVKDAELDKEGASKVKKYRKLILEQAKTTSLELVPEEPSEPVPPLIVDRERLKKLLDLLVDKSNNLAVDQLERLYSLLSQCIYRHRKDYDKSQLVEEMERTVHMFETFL
UniProt Q96QE3: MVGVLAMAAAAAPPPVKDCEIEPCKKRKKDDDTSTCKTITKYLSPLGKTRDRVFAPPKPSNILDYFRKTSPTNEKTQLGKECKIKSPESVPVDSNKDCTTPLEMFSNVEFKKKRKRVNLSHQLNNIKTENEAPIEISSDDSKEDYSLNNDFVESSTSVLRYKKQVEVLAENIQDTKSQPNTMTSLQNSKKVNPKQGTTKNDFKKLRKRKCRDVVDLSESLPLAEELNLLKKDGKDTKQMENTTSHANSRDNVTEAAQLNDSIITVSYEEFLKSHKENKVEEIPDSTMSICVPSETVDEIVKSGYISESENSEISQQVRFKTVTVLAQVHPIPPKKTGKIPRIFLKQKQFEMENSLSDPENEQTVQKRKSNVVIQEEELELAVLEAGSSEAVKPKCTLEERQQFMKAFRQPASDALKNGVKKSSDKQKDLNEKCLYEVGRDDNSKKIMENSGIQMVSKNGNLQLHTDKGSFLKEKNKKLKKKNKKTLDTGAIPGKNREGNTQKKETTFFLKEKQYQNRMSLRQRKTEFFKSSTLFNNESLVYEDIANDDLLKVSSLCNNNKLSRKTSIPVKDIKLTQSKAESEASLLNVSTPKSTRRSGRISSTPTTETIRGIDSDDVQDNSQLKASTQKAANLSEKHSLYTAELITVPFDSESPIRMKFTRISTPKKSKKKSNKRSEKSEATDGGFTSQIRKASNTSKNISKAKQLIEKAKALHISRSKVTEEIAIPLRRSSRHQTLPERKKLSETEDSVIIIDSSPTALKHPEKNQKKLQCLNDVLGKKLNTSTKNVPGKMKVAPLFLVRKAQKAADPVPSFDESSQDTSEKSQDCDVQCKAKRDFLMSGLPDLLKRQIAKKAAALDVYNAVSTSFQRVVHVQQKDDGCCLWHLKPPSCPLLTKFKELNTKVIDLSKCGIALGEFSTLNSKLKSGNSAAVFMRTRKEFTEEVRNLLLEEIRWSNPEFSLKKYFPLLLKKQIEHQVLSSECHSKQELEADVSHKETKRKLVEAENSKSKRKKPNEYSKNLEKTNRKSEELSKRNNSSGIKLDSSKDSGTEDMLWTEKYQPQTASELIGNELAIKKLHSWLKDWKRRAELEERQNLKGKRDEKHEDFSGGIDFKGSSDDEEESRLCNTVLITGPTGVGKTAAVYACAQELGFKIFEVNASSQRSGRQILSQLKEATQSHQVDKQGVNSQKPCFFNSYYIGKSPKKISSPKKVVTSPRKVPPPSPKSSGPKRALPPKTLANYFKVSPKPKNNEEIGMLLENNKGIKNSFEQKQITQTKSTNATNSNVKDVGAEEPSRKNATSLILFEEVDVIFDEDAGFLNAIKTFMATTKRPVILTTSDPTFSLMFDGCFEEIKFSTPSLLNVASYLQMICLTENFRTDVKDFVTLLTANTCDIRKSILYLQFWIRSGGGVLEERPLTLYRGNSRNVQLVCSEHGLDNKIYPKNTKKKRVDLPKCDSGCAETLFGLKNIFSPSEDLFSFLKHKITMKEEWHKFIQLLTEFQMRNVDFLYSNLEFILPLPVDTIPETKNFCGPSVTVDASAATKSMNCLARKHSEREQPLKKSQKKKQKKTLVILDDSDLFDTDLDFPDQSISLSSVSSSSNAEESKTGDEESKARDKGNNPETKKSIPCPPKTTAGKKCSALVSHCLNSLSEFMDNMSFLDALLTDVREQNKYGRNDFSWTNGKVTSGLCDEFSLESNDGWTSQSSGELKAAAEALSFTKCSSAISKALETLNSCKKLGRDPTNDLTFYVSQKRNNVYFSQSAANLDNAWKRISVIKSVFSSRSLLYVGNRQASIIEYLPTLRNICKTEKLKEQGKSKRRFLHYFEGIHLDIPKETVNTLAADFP

Experiments:
Experiment in all cases: log2 fold change, soluble protein after heating vs DMSO (PISA); higher = thermal stabilisation; K562 lysate, 10 uM; active = over 0.2 and 3.5 SD of the protein, either way, in both replicates (recomputed)
vemurafenib = compound: CCCS(=O)(=O)Nc1ccc(F)c(C(=O)c2c[nH]c3ncc(-c4ccc(Cl)cc4)cc23)c1F [vemurafenib]
How it was run: (§1)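 A 30 min treatment with 10 μM compound was applied to crude K562 extract at 1 mg/mL protein in PBS pH 7.4 with 1 mM MgCl2. Heating for 3 min spanned 48°C-58°C, after which aliquots were pooled, adjusted to 0.5% NP-40 at 4°C and spun at 21,000xg for 90 min. TMTpro 16plex LC-MS/MS of the supernatant, with channel sums equalised, gave values recorded as log-two fold change in thermal stability against solvent controls, from duplicates.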

[1] = compound: CCCS(=O)(=O)Nc1ccc(F)c(C(=O)c2c[nH]c3ncc(Cl)cc23)c1F
How it was run: as §1

barasertib = compound: CCN(CCCOc1ccc2c(Nc3cc(CC(=O)Nc4cccc(F)c4)[nH]n3)ncnc2c1)CCOP(=O)(O)O [barasertib]
How it was run: as §1

[2] = compound: CC[C@@H]1C(=O)N(C)c2cnc(Nc3ccc(C(=O)NC4CCN(C)CC4)cc3OC)nc2N1C1CCCC1
How it was run: as §1

volasertib = compound: CC[C@@H]1C(=O)N(C)c2cnc(Nc3ccc(C(=O)N[C@H]4CC[C@H](N5CCN(CC6CC6)CC5)CC4)cc3OC)nc2N1C(C)C [volasertib]
How it was run: as §1

[3] = compound: CCn1c(C(=O)N(C2CC2)C2CC2)cc2c3c(ncn3C)c(Nc3cc(C)n(C)n3)nc21
How it was run: as §1

[4] = compound: CCn1cc(-c2ccnc3[nH]c(-c4cccc(CN(C)C)c4)cc23)c(-c2ccc(NC(=O)N(C)C)cc2)n1
How it was run: as §1

[5] = compound: CN1CCC(CNc2ccc3ncc(-c4cccc(OC(F)(F)F)c4)n3n2)CC1
How it was run: as §1

saracatinib = compound: CN1CCN(CCOc2cc(OC3CCOCC3)c3c(Nc4c(Cl)ccc5c4OCO5)ncnc3c2)CC1 [saracatinib]
How it was run: as §1

sotrastaurin = compound: CN1CCN(c2nc(C3=C(c4c[nH]c5ccccc45)C(=O)NC3=O)c3ccccc3n2)CC1 [sotrastaurin]
How it was run: as §1

alvocidib = compound: CN1CC[C@H](c2c(O)cc(O)c3c(=O)cc(-c4ccccc4Cl)oc23)[C@H](O)C1 [alvocidib]
How it was run: as §1

Tubastatin A = compound: CN1CCc2c(c3ccccc3n2Cc2ccc(C(=O)NO)cc2)C1 [Tubastatin A]
How it was run: as §1

[6] = compound: CNC(=O)C1=CC=CC=C1NC2=NC(=NC=C2Cl)NC3=C(C=C(C=C3)N4CCOCC4)OC
How it was run: as §1

defactinib = compound: CNC(=O)c1ccc(Nc2ncc(C(F)(F)F)c(NCc3nccnc3N(C)S(C)(=O)=O)n2)cc1 [defactinib]
How it was run: as §1

[7] = compound: CNc1nc(-c2ccc3c(N)n[nH]c3c2)cc(N2C[C@@H](C(=O)NC3CCCCC3)CC[C@H]2C)n1
How it was run: as §1

encorafenib = compound: COC(=O)N[C@@H](C)CNc1nccc(-c2cn(C(C)C)nc2-c2cc(Cl)cc(NS(C)(=O)=O)c2F)n1 [encorafenib]
How it was run: as §1

[8] = compound: COC(=O)[C@H](CCSC)NC(=O)C1=C(C=C(C=C1)NC[C@H](CS)N)C2=CC=CC=C2
How it was run: as §1

alisertib = compound: COc1cc(Nc2ncc3c(n2)-c2ccc(Cl)cc2C(c2c(F)cccc2OC)=NC3)ccc1C(=O)O [alisertib]
How it was run: as §1

[9] = compound: COc1cc2nc(-c3cc(F)ccc3O)nc(N[C@@H]3CNC[C@H]3C(C)(C)O)c2cc1OC
How it was run: as §1

gefitinib = compound: COc1cc2ncnc(Nc3ccc(F)c(Cl)c3)c2cc1OCCCN1CCOCC1 [gefitinib]
How it was run: as §1

Measured: log2 fold change

AURKA (UniProt O14965)
active: barasertib 0.763 | [4] 0.719
inactive: vemurafenib 0.088 | [1] 0.068 | [2] -0.062 | volasertib -0.015 | [3] -0.009 | [5] 0.096 | saracatinib 0.008 | sotrastaurin 0.028 | alvocidib -0.006 | Tubastatin A 0.03 | [6] 0.586 | defactinib 0.425 | [7] 0.094 | encorafenib -0.068 | [8] 0.002 | alisertib 0.436 | [9] -0.023 | gefitinib -0.101

ATG101 (UniProt Q9BSB4)
inactive: vemurafenib 0.002 | [1] 0.03 | barasertib 0.081 | [2] 0.048 | volasertib 0.026 | [3] -0.025 | [4] -0.032 | [5] -0.039 | saracatinib 0.069 | sotrastaurin 0.005 | alvocidib 0.03 | Tubastatin A -0.018 | [6] 0.09 | defactinib 0.031 | [7] -0.014 | encorafenib 0.081 | [8] -0.057 | alisertib 0.068 | [9] -0.011 | gefitinib -0.016

ATP5MC2 isoform 2 (UniProt Q06055)
inactive: vemurafenib 0.038 | [1] 0.083 | barasertib 0.015 | [2] -0.005 | volasertib 0.049 | [3] -0.088 | [4] -0.243 | [5] 0.078 | saracatinib 0 | sotrastaurin 0.014 | alvocidib -0.032 | Tubastatin A 0.011 | [6] -0.024 | defactinib -0.029 | [7] 0.081 | encorafenib 0.014 | [8] -0.073 | alisertib -0.026 | [9] -0.011 | gefitinib -0.036

ASH2L (UniProt Q9UBL3)
inactive: vemurafenib 0.003 | [1] -0.003 | barasertib 0.008 | [2] -0.001 | volasertib -0.009 | [3] 0.038 | [4] -0.051 | [5] 0.029 | saracatinib 0.002 | sotrastaurin 0.015 | alvocidib -0.004 | Tubastatin A -0.06 | [6] 0.03 | defactinib 0.006 | [7] 0.016 | encorafenib -0.026 | [8] 0.027 | alisertib -0.001 | [9] -0.042 | gefitinib -0.017

2 records drawn at random from the list so far:
ATP5MC2 isoform 2 (UniProt Q06055)
inactive: vemurafenib 0.038 | [1] 0.083 | barasertib 0.015 | [2] -0.005 | volasertib 0.049 | [3] -0.088 | [4] -0.243 | [5] 0.078 | saracatinib 0 | sotrastaurin 0.014 | alvocidib -0.032 | Tubastatin A 0.011 | [6] -0.024 | defactinib -0.029 | [7] 0.081 | encorafenib 0.014 | [8] -0.073 | alisertib -0.026 | [9] -0.011 | gefitinib -0.036

ASH2L (UniProt Q9UBL3)
inactive: vemurafenib 0.003 | [1] -0.003 | barasertib 0.008 | [2] -0.001 | volasertib -0.009 | [3] 0.038 | [4] -0.051 | [5] 0.029 | saracatinib 0.002 | sotrastaurin 0.015 | alvocidib -0.004 | Tubastatin A -0.06 | [6] 0.03 | defactinib 0.006 | [7] 0.016 | encorafenib -0.026 | [8] 0.027 | alisertib -0.001 | [9] -0.042 | gefitinib -0.017

The list goes on.

ATXN7L3 isoform 2 (UniProt Q14CW9)
inactive: [1] -0.074 | barasertib 0.045 | volasertib -0.084 | [3] 0.031 | [4] -0.147 | [5] 0.164 | saracatinib 0.001 | sotrastaurin -0.031 | alvocidib 0.049 | Tubastatin A 0.074 | [6] 0.08 | [7] 0.011 | alisertib 0.201 | [9] 0.248 | gefitinib -0.135

NA (UniProt B2RBV5)
inactive: [1] 0.054 | barasertib 0.191 | [2] 0.069 | volasertib -0.02 | sotrastaurin 0.281 | [6] -0.31 | encorafenib 0.05 | [8] -0.049 | alisertib 0.046 | [9] 0.115 | gefitinib -0.054

ASS1 (UniProt P00966)
inactive: [1] 0.093 | barasertib 0.053 | [2] 0.027 | volasertib -0.065 | [3] -0.006 | [4] -0.02 | [5] -0.025 | saracatinib -0.028 | sotrastaurin 0.033 | alvocidib 0.031 | Tubastatin A -0.14 | [6] 0.401 | [7] -0.104 | encorafenib 0.024 | [8] 0.086 | alisertib -0.014 | [9] -0.034 | gefitinib 0.054

ASPRV1 (UniProt Q53RT3)
inactive: [6] -0.254

ASNSD1 (UniProt Q9NWL6)
inactive: barasertib -0.051 | [2] -0.048 | [4] -0.009 | [5] 0.126 | alvocidib 0 | [6] 0.13 | encorafenib 0.198 | [8] 0.214 | alisertib -0.112 | gefitinib -0.263

B3GNTL1 (UniProt Q67FW5)
inactive: [1] -0.014 | barasertib 0.113 | [2] 0.023 | volasertib -0.082 | [3] 0.001 | [4] -0.087 | [5] -0.033 | sotrastaurin 0.043 | alvocidib -0.23 | Tubastatin A 0.007 | encorafenib -0.081 | [8] 0.078 | [9] -0.057

ASXL3 (UniProt Q9C0F0)
inactive: [1] -0.079 | volasertib 0.074 | [3] -0.224 | sotrastaurin -0.011 | Tubastatin A -0.151 | [6] -0.143 | [9] 0.017

ATP5F1B (UniProt H0YI37)
inactive: [1] 0.07 | barasertib -0.324 | volasertib -0.289 | [3] -0.514 | saracatinib 0.138 | sotrastaurin -0.13 | Tubastatin A 0.398 | [6] 0.002 | [7] 1.34 | alisertib -0.212 | [9] 0.404 | gefitinib 0.292

ATXN7L2 (UniProt Q5T6C5)
inactive: vemurafenib 0.001 | defactinib 0.101

B3GALT6 (UniProt Q96L58)
inactive: barasertib 0.002 | [3] 0.115 | saracatinib -0.172 | sotrastaurin 0.067 | Tubastatin A 0.051 | [6] -0.025 | [7] 0.059

ATPSCKMT (UniProt Q6P4H8)
active: Tubastatin A -0.368
inactive: barasertib -0.019 | [2] 0.171 | [3] 0.077 | saracatinib 0.053 | sotrastaurin -0.007 | [7] -0.027 | encorafenib -0.176 | [8] 0.17

ASTE1 (UniProt Q2TB18)
inactive: [1] -0.148 | volasertib -0.1 | sotrastaurin 0.191 | [9] 0.044

ATE1 (UniProt O95260)
inactive: [1] 0.061 | barasertib -0.051 | volasertib 0.002 | [4] 0.082 | [5] 0.003 | sotrastaurin 0.021 | alvocidib -0.024 | [9] 0.044

ATP1B4 (UniProt Q9UN42)
inactive: [1] 0.023 | volasertib -0.021 | [3] 0.089 | saracatinib 0.102 | sotrastaurin 0.002 | Tubastatin A -0.051 | [7] -0.006 | [9] 0.03

ATAD2B (UniProt Q9ULI0)
inactive: barasertib 0.093 | [3] 0.119 | Tubastatin A -0.126

ATP5F1A (UniProt K7ENJ4)
inactive: [1] 0.02 | volasertib 0.097 | [3] -0.001 | [4] -0.081 | [5] 0.117 | alvocidib 0.067 | Tubastatin A -0.051 | [6] 0.135 | alisertib 0.01 | [9] 0.005 | gefitinib -0.023

ATAD5 (UniProt Q96QE3)
inactive: [2] -0.045 | [6] 0.016 | encorafenib 0.02 | [8] -0.175 | alisertib 0.02 | gefitinib 0.043

ATP6V0A1 (UniProt Q93050)
inactive: [1] 0.067 | barasertib 0.128 | volasertib 0.033 | [3] 0.075 | [4] -0.035 | [5] 0.149 | saracatinib 0.076 | sotrastaurin -0.109 | alvocidib -0.023 | Tubastatin A -0.041 | [6] -0.087 | [7] -0.039 | [9] -0.167

ATP5F1C isoform 2 (UniProt P36542)
inactive: barasertib 0.073 | [3] -0.022 | sotrastaurin -0.325 | Tubastatin A 0.108

ASXL1 (UniProt Q8IXJ9)
inactive: [1] 0.064 | barasertib -0.006 | [2] -0.054 | volasertib 0.047 | [3] -0.012 | [4] 0.126 | [5] -0.138 | saracatinib 0 | sotrastaurin 0.031 | alvocidib 0.044 | Tubastatin A -0.043 | [6] 0.047 | [7] 0.078 | encorafenib -0.005 | [8] -0.041 | alisertib 0.092 | [9] -0.03 | gefitinib -0.025
